Reference: PMC7214468
Results are given in words; binding and its absence hold for the method and conditions named. Binding seen in cells or lysates may run through a third protein. Some binding calls cover weakened binding; strength is not graded here. Tags and fused reporters may be left off the sequences shown.

Protein sequences, listed by entry. Tags and fused reporters are not part of them.
UniProt O35718: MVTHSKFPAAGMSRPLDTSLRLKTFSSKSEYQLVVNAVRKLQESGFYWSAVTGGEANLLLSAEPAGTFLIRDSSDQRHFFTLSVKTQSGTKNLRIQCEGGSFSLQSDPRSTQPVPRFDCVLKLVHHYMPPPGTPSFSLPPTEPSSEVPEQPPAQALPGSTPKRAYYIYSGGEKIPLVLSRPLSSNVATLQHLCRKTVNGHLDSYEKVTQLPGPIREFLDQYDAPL

Target: HA-SOCS3 (suppressor of cytokine signaling 3) (UniProt O35718)
Assay: co-IP; HEK293T cells co-transfected with the indicated plasmids; lysates precleared with protein G-agarose, incubated with anti-HA overnight at 4 °C, beads washed three times with lysis buffer; western blotting

binding: binds
B1: Flag-CUEDC2 (CUE domain-containing 2) (protein, UniProt Q9CXX9 1-284)
chain: MELERIVGSALLTFVQAHLPEADLSGLDEVIFSYVLGVLEDLGPSGPSEENFDMEAFTEMMEAYVPGFAHIPRGIIGDMMQKLSVQLSDARNKENLHPQSSCVQGQVPIFPETPRQAEKLEEESRPPAAPGNTLDEAAAAEELPGVDVLLEVFPTCSMEQAQWVLAKARGDLEEAVHMLVEGKEEGPPGWDGPSQDLPRRLRGPQKDDLKSFILQKYMMVDRAEDQKTHRPMAPKEAPKKLIRYIDNQVVSTKGERFKDVRNPEAEEMKATYINLKPARKYRFH
